Record: PubChem BioAssay AID1159579 (Peter MacCallum Cancer Centre, 2015)
Shown is a random part of about 2,000 reagents tested. In the full data, 549 (27%) were called active. 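Some migration ratios are negative; siRNAs with too few cells are inactive whatever their migration ratio.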 The numbers tell different reagents against one gene apart. The record does not give: the time to read-out.

Assay: 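Retest candidate lymphatic endothelial migration regulators using several independent siRNAs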 (follow-up of hits)
Cells: human dermal lymphatic endothelial cells
Reagent: single siRNA against human genes, 25 nM
Read-out: 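Scratch wound imaging measuring area filled by moving cells plus nuclei number, averaged over two wells and scaled to mock-transfected controls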
Direction: migration relative to mock: higher = more migration into the scratch; mean nuclei count: higher = more cells remaining
Active means: 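Called active when the migration ratio is 0.6 or lower (impaired) or 1.3 or higher (accelerated), but inactive whenever the mean nuclei count falls under 3300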
Meaning of the calls: active = migration changed (impaired or accelerated); inactive = no migration change, or too few cells

PRNP #1 gave migration relative to mock 0.91; migration and cell number class no change in migration or cell number; mean nuclei count 5236; inactive.
Depletion of PRNP #2 gave: migration relative to mock 1.2; migration and cell number class no change in migration or cell number; mean nuclei count 5456; inactive.
For PRNP #3 the deposit lists migration relative to mock 1.14; migration and cell number class no change in migration or cell number; mean nuclei count 4563; inactive.
With knock-down of PRNP #4, the record shows migration relative to mock 0.85; migration and cell number class no change in migration or cell number; mean nuclei count 4192; inactive.
Silencing of EVX2 #1 gave: migration relative to mock 0.92; migration and cell number class no change in migration or cell number; mean nuclei count 5625; inactive.
EVX2 #2 gave migration relative to mock 1.08; migration and cell number class no change in migration or cell number; mean nuclei count 5843; inactive.
After knock-down of EVX2 #3, the record shows migration relative to mock 0.91; migration and cell number class no change in migration or cell number; mean nuclei count 5330; inactive.
EVX2 #4 scored migration relative to mock 0.7; migration and cell number class no change in migration or cell number; mean nuclei count 5699; inactive.
For CAMKK1 #1, the values are migration relative to mock 0.88; migration and cell number class no change in migration or cell number; mean nuclei count 5854; inactive.
Against CAMKK1 #2, the values are migration relative to mock 0.85; migration and cell number class no change in migration or cell number; mean nuclei count 6568; inactive.
After knock-down of CAMKK1 #3, the record shows migration relative to mock 0.8; migration and cell number class no change in migration or cell number; mean nuclei count 6204; inactive.
CAMKK1 #4 scored migration relative to mock 0.88; migration and cell number class no change in migration or cell number; mean nuclei count 6590; inactive.
With knock-down of MARCHF10 #1, the screen gave migration relative to mock 0.96; migration and cell number class no change in migration or cell number; mean nuclei count 7800; inactive.
After knock-down of MARCHF10 #2, the screen gave migration relative to mock 0.74; migration and cell number class no change in migration or cell number; mean nuclei count 5670; inactive.
Knock-down of MARCHF10 #3 gave: migration relative to mock 0.76; migration and cell number class no change in migration or cell number; mean nuclei count 4958; inactive.
With knock-down of MARCHF10 #4, the screen gave migration relative to mock 1.02; migration and cell number class no change in migration or cell number; mean nuclei count 5570; inactive.
After knock-down of SACK1E #1 the results were migration relative to mock 1.04; migration and cell number class no change in migration or cell number; mean nuclei count 4914; inactive.
After knock-down of SACK1E #2, the screen gave migration relative to mock 1.14; migration and cell number class no change in migration or cell number; mean nuclei count 5370; inactive.
After knock-down of SACK1E #3, the screen gave migration relative to mock 0.88; migration and cell number class no change in migration or cell number; mean nuclei count 5788; inactive.
After knock-down of SACK1E #4, the record shows migration relative to mock 0.15; migration and cell number class migration reduced; mean nuclei count 3938; active.
EPB41L3 #1 scored migration relative to mock 0.77; migration and cell number class no change in migration or cell number; mean nuclei count 6761; inactive.
After knock-down of EPB41L3 #2 the results were migration relative to mock 0.88; migration and cell number class no change in migration or cell number; mean nuclei count 5990; inactive.
EPB41L3 #3 showed migration relative to mock 0.97; migration and cell number class no change in migration or cell number; mean nuclei count 6241; inactive.
After knock-down of EPB41L3 #4, the record shows migration relative to mock 1.02; migration and cell number class no change in migration or cell number; mean nuclei count 6282; inactive.
